# Assay results taken from the supplement of paper PMC8728848.
# Some of the results follow.
# B1: OS9 (Arabidopsis thaliana) (protein)
# chain: MRGSHHHHHHGMASMTGGQQMGRDLYDDDDKSRLQIFPAHLVGTFSRNNREPKYKIEFLPEDSPFHPGDNLESMVMLDKHGNRFLCYLPKEEKATSGWTSSQQNISTVMMETQQLVKLKTPDELLQPLSEKCLFRQEGWWSYEFCHQKYVRQLHVEDENKIVQEFFLGTFDPEATAAFNQTVSDASTDASQRYHSHVYTNGTTCDLTGSPREVEVRFVCAETRAMVTSITELSTCKYALTVQCPTLCKHPLFQLEKPVSHTIHCNAIPVEEDATRNKEEQAVDESPKMIADS
# What was measured:
# Experiment in all cases: glycan array binding signal (z-score within array); higher = stronger binding
# Conditions in all cases: glycan notation: IUPAC condensed, linker removed
# Gal(b1-4)Glc = biological target: Gal(b1-4)Glc
# Summary of the method: (§1)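 The binding signal is a Z-score computed within each array. Data were drawn from 3228 arrays in the Consortium for Functional Glycomics database, restricted to those with a known protein sequence. Scores were averaged over arrays of the same protein sequence at different concentrations or buffers, and over linkers, and negative values can be taken as non-binding.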
# Gal(b1-4)Glc6S = biological target: Gal(b1-4)Glc6S
# Summary of the method: as §1
# Gal(b1-4)GlcNAc = biological target: Gal(b1-4)GlcNAc
# Summary of the method: as §1
# [1] = biological target: Gal(b1-4)GlcNAc(a1-6)Gal(b1-4)GlcNAc
# Summary of the method: as §1
# Gal(b1-4)GlcNAc(b1-2)Man = biological target: Gal(b1-4)GlcNAc(b1-2)Man
# Summary of the method: as §1
# [2] = biological target: Gal(b1-4)GlcNAc(b1-2)Man(a1-3)Man(b1-4)GlcNAc(b1-4)GlcNAc
# Summary of the method: as §1
# [3] = biological target: Gal(b1-4)GlcNAc(b1-2)Man(a1-3)[Gal(b1-4)GlcNAc(b1-2)Man(a1-6)]Man(b1-4)GlcNAc(b1-4)GlcNAc
# Summary of the method: as §1
# [4] = biological target: Gal(b1-4)GlcNAc(b1-2)Man(a1-3)[Gal(b1-4)GlcNAc(b1-2)Man(a1-6)]Man(b1-4)GlcNAc(b1-4)[Fuc(a1-6)]GlcNAc
# Summary of the method: as §1
# [5] = biological target: Gal(b1-4)GlcNAc(b1-2)Man(a1-3)[Gal(b1-4)GlcNAc(b1-2)Man(a1-6)][Gal(b1-4)GlcNAc(b1-4)]Man(b1-4)GlcNAc(b1-4)[Fuc(a1-6)]GlcNAc
# Summary of the method: as §1
# [6] = biological target: Gal(b1-4)GlcNAc(b1-2)Man(a1-3)[Gal(b1-4)GlcNAc(b1-2)Man(a1-6)][GlcNAc(b1-4)]Man(b1-4)GlcNAc(b1-4)[Fuc(a1-6)]GlcNAc
# Summary of the method: as §1
# [7] = biological target: Gal(b1-4)GlcNAc(b1-2)Man(a1-3)[GlcNAc(b1-2)Man(a1-6)]Man(b1-4)GlcNAc(b1-4)GlcNAc
# Summary of the method: as §1
# [8] = biological target: Gal(b1-4)GlcNAc(b1-2)Man(a1-3)[GlcNAc(b1-4)][Gal(b1-4)GlcNAc(b1-2)Man(a1-6)]Man(b1-4)GlcNAc(b1-4)GlcNAc
# Summary of the method: as §1
# [9] = biological target: Gal(b1-4)GlcNAc(b1-2)Man(a1-3)[Man(a1-6)]Man(b1-4)GlcNAc(b1-4)GlcNAc
# Summary of the method: as §1
# [10] = biological target: Gal(b1-4)GlcNAc(b1-2)Man(a1-6)Man(b1-4)GlcNAc(b1-4)GlcNAc
# Summary of the method: as §1
# [11] = biological target: Gal(b1-4)GlcNAc(b1-2)Man(a1-6)[GlcNAc(b1-2)Man(a1-3)]Man(b1-4)GlcNAc(b1-4)GlcNAc
# Summary of the method: as §1
# [12] = biological target: Gal(b1-4)GlcNAc(b1-2)Man(a1-6)[Man(a1-3)]Man(b1-4)GlcNAc(b1-4)GlcNAc
# Summary of the method: as §1
# [13] = biological target: Gal(b1-4)GlcNAc(b1-2)[Gal(b1-4)GlcNAc(b1-4)]Man(a1-3)[Gal(b1-4)GlcNAc(b1-2)Man(a1-6)]Man(b1-4)GlcNAc(b1-4)GlcNAc
# Summary of the method: as §1
# [14] = biological target: Gal(b1-4)GlcNAc(b1-2)[Gal(b1-4)GlcNAc(b1-4)]Man(a1-3)[Gal(b1-4)GlcNAc(b1-2)[Gal(b1-4)GlcNAc(b1-6)]Man(a1-6)]Man(b1-4)GlcNAc(b1-4)GlcNAc
# Summary of the method: as §1
# [15] = biological target: Gal(b1-4)GlcNAc(b1-2)[Gal(b1-4)GlcNAc(b1-4)]Man(a1-3)[GlcNAc(b1-4)][Gal(b1-4)GlcNAc(b1-2)Man(a1-6)]Man(b1-4)GlcNAc(b1-4)GlcNAc
# Summary of the method: as §1
# [16] = biological target: Gal(b1-4)GlcNAc(b1-2)[Gal(b1-4)GlcNAc(b1-4)]Man(a1-3)[GlcNAc(b1-4)][Gal(b1-4)GlcNAc(b1-2)[Gal(b1-4)GlcNAc(b1-6)]Man(a1-6)]Man(b1-4)GlcNAc(b1-4)GlcNAc
# Summary of the method: as §1
# [17] = biological target: Gal(b1-4)GlcNAc(b1-2)[Gal(b1-4)GlcNAc(b1-6)]Man(a1-6)[Gal(b1-4)GlcNAc(b1-2)Man(a1-3)]Man(b1-4)GlcNAc(b1-4)GlcNAc
# Summary of the method: as §1
# [18] = biological target: Gal(b1-4)GlcNAc(b1-2)[Gal(b1-4)GlcNAc(b1-6)]Man(a1-6)[Gal(b1-4)GlcNAc(b1-2)Man(a1-3)]Man(b1-4)GlcNAc(b1-4)[Fuc(a1-6)]GlcNAc
# Summary of the method: as §1
# [19] = biological target: Gal(b1-4)GlcNAc(b1-2)[Gal(b1-4)GlcNAc(b1-6)]Man(a1-6)[GlcNAc(b1-4)][Gal(b1-4)GlcNAc(b1-2)Man(a1-3)]Man(b1-4)GlcNAc(b1-4)GlcNAc
# Summary of the method: as §1
# [20] = biological target: Gal(b1-4)GlcNAc(b1-2)[Gal(b1-4)GlcNAc(b1-6)]Man(a1-6)[GlcNAc(b1-4)][Gal(b1-4)GlcNAc(b1-2)[Gal(b1-4)GlcNAc(b1-4)]Man(a1-3)]Man(b1-4)GlcNAc(b1-4)[Fuc(a1-6)]GlcNAc
# Summary of the method: as §1
# [21] = biological target: Gal(b1-4)GlcNAc(b1-3)Gal(b1-3)GalNAc
# Summary of the method: as §1
# [22] = biological target: Gal(b1-4)GlcNAc(b1-3)Gal(b1-3)GlcNAc
# Summary of the method: as §1
# [23] = biological target: Gal(b1-4)GlcNAc(b1-3)Gal(b1-4)Glc
# Summary of the method: as §1
# [24] = biological target: Gal(b1-4)GlcNAc(b1-3)Gal(b1-4)GlcNAc
# Summary of the method: as §1
# [25] = biological target: Gal(b1-4)GlcNAc(b1-3)Gal(b1-4)GlcNAc(b1-2)Man(a1-3)[Gal(b1-4)GlcNAc(b1-3)Gal(b1-4)GlcNAc(b1-2)Man(a1-6)]Man(b1-4)GlcNAc(b1-4)GlcNAc
# Summary of the method: as §1
# [26] = biological target: Gal(b1-4)GlcNAc(b1-3)Gal(b1-4)GlcNAc(b1-2)Man(a1-3)[Gal(b1-4)GlcNAc(b1-3)Gal(b1-4)GlcNAc(b1-2)Man(a1-6)]Man(b1-4)GlcNAc(b1-4)[Fuc(a1-6)]GlcNAc
# Summary of the method: as §1
# [27] = biological target: Gal(b1-4)GlcNAc(b1-3)Gal(b1-4)GlcNAc(b1-2)[Gal(b1-4)GlcNAc(b1-3)Gal(b1-4)GlcNAc(b1-6)]Man(a1-6)[Gal(b1-4)GlcNAc(b1-3)Gal(b1-4)GlcNAc(b1-2)Man(a1-3)]Man(b1-4)GlcNAc(b1-4)GlcNAc
# Summary of the method: as §1
# [28] = biological target: Gal(b1-4)GlcNAc(b1-3)Gal(b1-4)GlcNAc(b1-2)[Gal(b1-4)GlcNAc(b1-3)Gal(b1-4)GlcNAc(b1-6)]Man(a1-6)[Gal(b1-4)GlcNAc(b1-3)Gal(b1-4)GlcNAc(b1-2)Man(a1-3)]Man(b1-4)GlcNAc(b1-4)[Fuc(a1-6)]GlcNAc
# Summary of the method: as §1
# [29] = biological target: Gal(b1-4)GlcNAc(b1-3)Gal(b1-4)GlcNAc(b1-3)Gal(b1-4)GlcNAc
# Summary of the method: as §1
# [30] = biological target: Gal(b1-4)GlcNAc(b1-3)Gal(b1-4)GlcNAc(b1-3)Gal(b1-4)GlcNAc(b1-2)Man(a1-3)[Gal(b1-4)GlcNAc(b1-3)Gal(b1-4)GlcNAc(b1-3)Gal(b1-4)GlcNAc(b1-2)Man(a1-6)]Man(b1-4)GlcNAc(b1-4)GlcNAc
# Summary of the method: as §1
# [31] = biological target: Gal(b1-4)GlcNAc(b1-3)Gal(b1-4)GlcNAc(b1-3)Gal(b1-4)GlcNAc(b1-2)Man(a1-3)[Gal(b1-4)GlcNAc(b1-3)Gal(b1-4)GlcNAc(b1-3)Gal(b1-4)GlcNAc(b1-2)Man(a1-6)]Man(b1-4)GlcNAc(b1-4)[Fuc(a1-6)]GlcNAc
# Summary of the method: as §1
# [32] = biological target: Gal(b1-4)GlcNAc(b1-3)Gal(b1-4)GlcNAc(b1-3)Gal(b1-4)GlcNAc(b1-2)[Gal(b1-4)GlcNAc(b1-3)Gal(b1-4)GlcNAc(b1-3)Gal(b1-4)GlcNAc(b1-6)]Man(a1-6)[Gal(b1-4)GlcNAc(b1-3)Gal(b1-4)GlcNAc(b1-3)Gal(b1-4)GlcNAc(b1-2)Man(a1-3)]Man(b1-4)GlcNAc(b1-4)[Fuc(a1-6)]GlcNAc
# Summary of the method: as §1
# [33] = biological target: Gal(b1-4)GlcNAc(b1-3)Gal(b1-4)GlcNAc(b1-3)Gal(b1-4)GlcNAc(b1-3)Gal(b1-4)GlcNAc(b1-2)Man(a1-3)[Gal(b1-4)GlcNAc(b1-3)Gal(b1-4)GlcNAc(b1-3)Gal(b1-4)GlcNAc(b1-3)Gal(b1-4)GlcNAc(b1-2)Man(a1-6)]Man(b1-4)GlcNAc(b1-4)GlcNAc
# Summary of the method: as §1
binder,measurement,setting,value
B1,glycan array binding signal (z-score),Gal(b1-4)Glc,-0.65
same,glycan array binding signal (z-score),Gal(b1-4)Glc6S,0.066
same,glycan array binding signal (z-score),Gal(b1-4)GlcNAc,-1.02
same,glycan array binding signal (z-score),[1],0.297
same,glycan array binding signal (z-score),Gal(b1-4)GlcNAc(b1-2)Man,-0.591
same,glycan array binding signal (z-score),[2],-0.282
same,glycan array binding signal (z-score),[3],-0.393
same,glycan array binding signal (z-score),[4],1.63
same,glycan array binding signal (z-score),[5],-0.28
same,glycan array binding signal (z-score),[6],0.877
same,glycan array binding signal (z-score),[7],-1.35
same,glycan array binding signal (z-score),[8],-0.453
same,glycan array binding signal (z-score),[9],-0.928
same,glycan array binding signal (z-score),[10],-0.928
same,glycan array binding signal (z-score),[11],0.081
same,glycan array binding signal (z-score),[12],-1.68
same,glycan array binding signal (z-score),[13],0.895
same,glycan array binding signal (z-score),[14],-1.1
same,glycan array binding signal (z-score),[15],-0.134
same,glycan array binding signal (z-score),[16],-0.3
same,glycan array binding signal (z-score),[17],0.108
same,glycan array binding signal (z-score),[18],-0.47
same,glycan array binding signal (z-score),[19],-0.016
same,glycan array binding signal (z-score),[20],-0.26
same,glycan array binding signal (z-score),[21],-0.687
same,glycan array binding signal (z-score),[22],-0.836
same,glycan array binding signal (z-score),[23],-0.54
same,glycan array binding signal (z-score),[24],-0.603
same,glycan array binding signal (z-score),[25],1.39
same,glycan array binding signal (z-score),[26],1.58
same,glycan array binding signal (z-score),[27],0.742
same,glycan array binding signal (z-score),[28],-0.255
same,glycan array binding signal (z-score),[29],0.535
same,glycan array binding signal (z-score),[30],0.733
same,glycan array binding signal (z-score),[31],-0.901
same,glycan array binding signal (z-score),[32],0.003
same,glycan array binding signal (z-score),[33],1.22

# Retrieved one by one from above:
binder,measurement,setting,value
B1,glycan array binding signal (z-score),[19],-0.016
same,glycan array binding signal (z-score),[17],0.108
